Our source for the IC50 values is patent publication US5409950A, “Cyclic ketal derivatives” (Glaxo Group Limited, priority 1991, dated 1995).

This test deals with T1, squalene synthase (Rattus norvegicus, UniProt Q02769).
T1 construct: incubating rat liver homogenate with various concentrations of the test compound; from tissue; host or cells: rat liver homogenate
T1 sequence (Q02769 1-416): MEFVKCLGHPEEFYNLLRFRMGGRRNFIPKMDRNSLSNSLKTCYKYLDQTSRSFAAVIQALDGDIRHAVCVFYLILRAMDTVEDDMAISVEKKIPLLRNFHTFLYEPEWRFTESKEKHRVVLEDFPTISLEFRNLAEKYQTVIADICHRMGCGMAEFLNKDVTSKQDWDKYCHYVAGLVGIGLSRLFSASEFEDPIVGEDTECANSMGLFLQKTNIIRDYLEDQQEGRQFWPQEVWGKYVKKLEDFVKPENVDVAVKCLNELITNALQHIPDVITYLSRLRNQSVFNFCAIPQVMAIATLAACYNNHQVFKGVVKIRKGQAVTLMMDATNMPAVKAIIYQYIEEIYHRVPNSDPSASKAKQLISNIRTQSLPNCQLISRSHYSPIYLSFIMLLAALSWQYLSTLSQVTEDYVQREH
Briefly: Inhibition of squalene synthase in rat liver homogenate. It counts as biochemical. As for the experimental part: Acta, Volume 877, 50-60 (1986) and modified to include measurement of cholesterol by high performance liquid chromatography (h.p.l.c.).
[^14 C] Squalene was separated from unreacted substrate on thin layer chromatography plates and determined by liquid scintillation counting. Inhibition of squalene synthase was quantified by incubating rat liver homogenate with various concentrations of the test compound in the presence of [2-^14 C] farnesylpyrophosphate. The concentration of compound giving 50% inhibition of [^14 C] squalene production in a 30 minute assay was taken as the IC50 value.

One may read the IC50 as the midpoint of a concentration-inhibition curve. A low value points to higher potency.

In turn, `C=C(CC[C@]12O[C@H](C(=O)O)[C@@](O)(C(=O)O)[C@](C(=O)O)(O1)[C@H](O)[C@H]2O)[C@@H](OC(C)=O)[C@H](C)Cc1ccccc1` (relative stereo) [Compound C, [1S-]1α(4R*,5S*),3α,4β,5α,6α,7β]]1-(4-acetyloxy-5-methyl-3-methylene-6-phenylhexyl)-4,6,7-trihydroxy-2,8-dioxabicyclo[3.2.1]octane-3,4,5-tricarboxylic acid] had an IC50 of under 100 nM.
